Test results reported in patent publication US20170267764A1 (INNATE PHARMA, published 2017).
Positions count from the first letter of the chain named. These are yes or no findings as the source states them, for the method shown. Some binding calls cover weakened binding; strength is not graded here.

Chains of the proteins cited; added tags and fusions are not shown. Lines headed by an entry give the natural chain unless they say otherwise; changes in a name come on top.
UniProt Q29983: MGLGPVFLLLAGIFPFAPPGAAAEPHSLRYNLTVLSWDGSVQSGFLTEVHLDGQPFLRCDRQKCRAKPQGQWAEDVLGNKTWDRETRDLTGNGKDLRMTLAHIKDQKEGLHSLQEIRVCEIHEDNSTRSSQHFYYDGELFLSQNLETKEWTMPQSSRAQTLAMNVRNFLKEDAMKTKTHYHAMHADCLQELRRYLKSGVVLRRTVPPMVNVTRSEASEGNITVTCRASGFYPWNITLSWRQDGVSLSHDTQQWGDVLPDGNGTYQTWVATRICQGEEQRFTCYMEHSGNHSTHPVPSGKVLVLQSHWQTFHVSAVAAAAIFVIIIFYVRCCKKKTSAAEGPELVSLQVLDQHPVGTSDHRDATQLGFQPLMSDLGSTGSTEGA

Assays:
[1] = molecular target: T1, human MICA allele MICA*007 (human, UniProt Q29983 24-297); experiment: flow cytometry, C1R-MICA*007 transfectant cells
T1 construct: Expressed on transfected C1R cells; also called MICA*07; C1R-MICA*007
T1 chain: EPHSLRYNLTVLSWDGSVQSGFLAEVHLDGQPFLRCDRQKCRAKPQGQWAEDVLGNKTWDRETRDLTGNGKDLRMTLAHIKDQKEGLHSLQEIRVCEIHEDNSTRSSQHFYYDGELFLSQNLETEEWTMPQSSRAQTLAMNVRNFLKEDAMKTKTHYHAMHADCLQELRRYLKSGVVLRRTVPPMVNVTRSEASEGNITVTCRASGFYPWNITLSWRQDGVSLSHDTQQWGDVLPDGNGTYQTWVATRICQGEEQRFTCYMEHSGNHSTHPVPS
Protocol: (§1) The binding of the antibodies in Table 2 of Example 1 were tested for binding to MICA-expressing C1R transfectant cells (ATCC reference CRL-1993™) transfected with RSV.5neo vectors (GenBank (NCBI) under Accession number M83237), as described in Salih et al. (2003) Blood 102(4): […], referred to as C1R-MICA*001, C1R-MICA*004, C1R-MICA*007 and C1R-MICA*008. Binding was analyzed by flow cytometry.
(§2) Cells were harvested and stained in PBS 1×/BSA 0.2%/EDTA 2 mM buffer during 30 minutes at 4° C. using a dose-range of the anti-MICA mAbs. After two washes in staining buffer, cells were stained for 30 min at 4° C. with mouse anti-human IgG1-PE monoclonal antibodies (1/11). After two washes, stainings were acquired on a BD FACS Canto II and analyzed using the FlowJo software.

[2] = molecular target: T2, human MICA allele MICA*008 (human, UniProt Q29983 24-297); experiment: flow cytometry, C1R-MICA*008 transfectant cells
T2 chain: T1 chain with C36Y, M129V, K173E, G206S, W210R, T213I, S215T, Q251R
Protocol: as §1, §2

[3] = molecular target: T3, human MICA allele MICA*004 (human, UniProt Q29983 24-297); experiment: flow cytometry, C1R-MICA*004 transfectant cells
T3 construct: Expressed on transfected C1R cells; also called MICA*04; C1R-MICA*004
T3 chain: T1 chain with C36Y, L122V, M129V, K173E, G175S, T181R, G206S, W210R, S215T
Protocol: as §1, §2

[4] = molecular target: T4, human MICA allele MICA*001 (human, UniProt Q29983 24-297); experiment: flow cytometry, C1R-MICA*001 transfectant cells
T4 sequence: T1 chain with A24T, E125K
Protocol: as §1, §2

Measured: binding

B1: mAb4 (antibody, V domains shown)
VH: QVQLQESGPGLVKPSETLSLTCTVSGYSITSDYAWNWIRQPPGKGLEWMGFVSYSGTTKYNPSLKSRVTISRDTSKNQFSLKLSSVTAADTAVYYCARGYGFDYWGQGTTVTVSS
VL: EIVLTQSPATLSLSPGERATLSCSATSSISSIYFHWYQQKPGQAPRLLIYRTSNLASGIPARFSGSGSGTDYTLTISSLEPEDFAVYYCQQGTTIPFTFGQGTKLEIK
notes: Produced in CHO cells as human IgG1 with huCk constant domain
binds: all assays above

B2: mAb10 (antibody, V domains shown)
VH: B1 VH with V68I, K76E
VL: B1 VL
notes: as for B1
binds: all assays above

B3: mAb6 (antibody, V domains shown)
VH: B1 VH
VL: B1 VL with F84V
notes: as for B1
binds: all assays above

B4: mAb11 (antibody, V domains shown)
VH: B1 VH with V68I, K76E
VL: B1 VL with D71S
notes: as for B1
binds: all assays above

B5: mAb12 (antibody, V domains shown)
VH: B1 VH with V68I, K76E
VL: B1 VL with F84V
notes: as for B1
binds: all assays above

B6: mAb7 (antibody, V domains shown)
VH: B1 VH with K76E
VL: B1 VL
notes: as for B1
binds: all assays above

B7: mAb5 (antibody, V domains shown)
VH: B1 VH
VL: B1 VL with D71S
notes: as for B1
binds: all assays above

B8: mAb9 (antibody, V domains shown)
VH: B1 VH with K76E
VL: B1 VL with F84V
notes: as for B1
binds: all assays above

B9: mAb8 (antibody, V domains shown)
VH: B1 VH with K76E
VL: B1 VL with D71S
notes: as for B1
binds: all assays above
